Drawing on PMC5669913, this text covers binding for 1 substance.

By UniProt entry, the sequences of proteins in these tests, tags left out. Residues count along the entry.
UniProt O00220, residues 24-468: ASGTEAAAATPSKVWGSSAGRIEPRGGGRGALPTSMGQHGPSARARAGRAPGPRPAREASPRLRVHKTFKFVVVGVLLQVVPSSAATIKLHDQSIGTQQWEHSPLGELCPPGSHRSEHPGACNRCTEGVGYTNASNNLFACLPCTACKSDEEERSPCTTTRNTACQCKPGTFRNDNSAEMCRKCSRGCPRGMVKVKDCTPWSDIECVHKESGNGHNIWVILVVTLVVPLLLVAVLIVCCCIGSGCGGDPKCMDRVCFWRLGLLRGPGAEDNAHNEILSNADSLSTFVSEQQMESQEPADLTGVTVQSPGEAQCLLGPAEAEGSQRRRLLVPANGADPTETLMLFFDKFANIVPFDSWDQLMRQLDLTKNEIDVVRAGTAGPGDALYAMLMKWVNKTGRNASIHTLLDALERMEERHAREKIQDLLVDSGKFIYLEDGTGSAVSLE

This assay concerns the target T1, MARCH-8, a member of the membrane-associated RING-CH (MARCH) ubiquitin ligase family (human (endogenous in HCT116 and RKO)) (UniProt Q5T0T0).
T1 sequence: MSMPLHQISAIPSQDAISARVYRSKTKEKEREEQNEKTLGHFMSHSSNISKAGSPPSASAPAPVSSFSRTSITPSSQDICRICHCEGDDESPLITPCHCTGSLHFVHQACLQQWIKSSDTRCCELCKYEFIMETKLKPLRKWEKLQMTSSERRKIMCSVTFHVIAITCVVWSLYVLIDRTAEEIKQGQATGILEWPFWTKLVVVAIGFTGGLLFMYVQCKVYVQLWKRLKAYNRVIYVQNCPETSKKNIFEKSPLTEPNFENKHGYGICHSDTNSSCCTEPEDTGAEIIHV
Description: co-IP; cell lysates (20 mM Tris-HCl pH 7.6, 150 mM NaCl, 1 mM EDTA, 0.5% NP-40, 10% glycerol) incubated 12 h at 4°C with primary antibodies or IgG, then protein A/G agarose 4 h, washed 3 times with RIPA buffer, western blot; HCT116 and RKO cells, with NDRG1 over-expression or knock-down and their controls.

These are yes or no findings as the source states them, for the method shown. Binding seen in cells or lysates may run through a third protein. Some binding calls cover weakened binding; strength is not graded here.

“death receptor 4 (from UniProt O00220 24-468)”: the binding result is “binds”.
